Here are results for 9 sequences from paper PMC10158250.

Construct, isoform or probe ends are uncertain for at least one entry. A negative result means that nothing was seen under these conditions.

For this data set, the system named is BpERF2 (MBP-ERF2). Kind of data set: EMSA. The note with it: Chemiluminescent EMSA kit (Beyotime); binding buffer, pH and temperature not stated; self-competitor at 20, 50, 100-fold excess; recombinant protein; protein details: MBP (N-terminal, pMAL-5); label: biotin.
Regarding “GGCGGCGCGGCGCTTGCGGCGCTTGCGGCGCG / GCGGCGCGCCGCAAGCGCCGCAAGCGCCGCG [Motif3 probe]”, the binding result is reported as “binds”. The entry for “GGCGGCAAAAAAATTAAAAAAATTAAAAAAAG / GCGGCTTTTTTTAATTTTTTTAATTTTTTTG [mutant probe]” is “no binding”; for “GGCGGCACCACAGTTACCACAGTTACCACAGG / GCGGCCTGTGGTAACTGTGGTAACTGTGGTG [Motif5 probe]” it is “binds”. The entry for “GGCGGCCCCAGCCTTCCCAGCCTTCCCAGCCG / GCGGCGGCTGGGAAGGCTGGGAAGGCTGGGG [Motif6 probe]” is “binds”; for “GGCGGCACAGAGTTACAGAGTTACAGAGG / GCGGCCTCTGTAACTCTGTAACTCTGTG [Motif8 probe]” it is “binds”; for “GGCGGCGGGCGGATTGGGCGGATTGGGCGGAG / GCGGCTCCGCCCAATCCGCCCAATCCGCCCG [Motif7 probe]” it is “binds”. With “GGCGGCCCCTCCCTTCCCTCCCTTCCCTCCCG / GCGGCGGGAGGGAAGGGAGGGAAGGGAGGGG [Motif1 probe]” the entry was “binds”; with “GGCGGCCAGGAGATTCAGGAGATTCAGGAGAG / GCGGCTCTCCTGAATCTCCTGAATCTCCTGG [Motif2 probe]”, “binds”. With “GGCGGCGCCCACCTTGCCCACCTTGCCCACCG / GCGGCGGTGGGCAAGGTGGGCAAGGTGGGCG [Motif4 probe]”, the binding result is given as “binds”.
